Results taken from publication PMC5371818, “Suppression of FOXM1 Transcriptional Activities via a Single-Stranded DNA Aptamer Generated by SELEX”.

The chains behind the UniProt entries cited, without tags or fusion partners. Where a name states a change or a piece, a line headed by the entry shows the natural chain unless it says otherwise. Residues count along the entry.
UniProt Q08050, 225-355: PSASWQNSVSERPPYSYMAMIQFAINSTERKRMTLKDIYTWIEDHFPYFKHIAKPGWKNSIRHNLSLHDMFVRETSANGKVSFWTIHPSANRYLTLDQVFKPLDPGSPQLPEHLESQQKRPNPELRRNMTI
UniProt Q9Y261: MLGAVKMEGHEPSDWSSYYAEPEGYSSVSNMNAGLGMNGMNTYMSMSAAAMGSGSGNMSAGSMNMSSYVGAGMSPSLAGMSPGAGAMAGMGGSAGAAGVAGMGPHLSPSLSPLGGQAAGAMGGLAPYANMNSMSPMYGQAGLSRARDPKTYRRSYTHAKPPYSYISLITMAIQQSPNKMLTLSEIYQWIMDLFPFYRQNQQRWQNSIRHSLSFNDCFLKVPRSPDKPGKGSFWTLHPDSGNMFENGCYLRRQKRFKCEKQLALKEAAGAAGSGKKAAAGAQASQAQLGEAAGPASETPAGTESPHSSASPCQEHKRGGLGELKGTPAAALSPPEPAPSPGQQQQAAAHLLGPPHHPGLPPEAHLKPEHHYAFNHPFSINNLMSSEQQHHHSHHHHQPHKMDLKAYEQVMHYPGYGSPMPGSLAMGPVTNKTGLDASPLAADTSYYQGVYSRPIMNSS

Experiments:
[1] = biological target: FOXM1 (pCMV-FOXM1 HEK293T lysate) (UniProt Q08050); assay: pull-down; conditions: phosphorothioate internucleotide linkages; protein in a lysate after overexpression; label: biotin; single-stranded DNA
[2] = biological target: FOXA2 endogenous (MDA-MB-436) (UniProt Q9Y261); assay: pull-down; conditions: phosphorothioate internucleotide linkages; protein in an extract; label: biotin; single-stranded DNA
[3] = biological target: FOXM1 endogenous (MDA-MB-436) (UniProt Q08050); assay: pull-down; conditions: phosphorothioate internucleotide linkages; protein in an extract; label: biotin; single-stranded DNA
[4] = biological target: FOXA2 (pCMV-FOXA2 HEK293T lysate) (UniProt Q9Y261); assay: pull-down; conditions: phosphorothioate internucleotide linkages; protein in a lysate after overexpression; label: biotin; single-stranded DNA
[5] = biological target: His-FOXM1 full-length (UniProt Q08050); assay: EMSA; conditions: positive control; EMSA and FP: 20 mM Tris-Cl, 50 mM KCl, 10% glycerol, 0.5 mM EDTA, 0.2 mM DTT, pH 7.6, 30 min on ice; EMSA 50 nM probe, FP 10 nM probe (50 nM in Fig. 1D legend); recombinant protein; protein details: C-terminal His6 (encoded by reverse primer S6); label: 5'-FAM on forward strand (hot) or none (cold)
[6] = biological target: GST-FOXM1 DBD (UniProt Q08050); assay: EMSA; conditions: EMSA and FP: 20 mM Tris-Cl, 50 mM KCl, 10% glycerol, 0.5 mM EDTA, 0.2 mM DTT, pH 7.6, 30 min on ice; EMSA 50 nM probe, FP 10 nM probe (50 nM in Fig. 1D legend); recombinant protein; residues 225-355; protein details: N-terminal GST (pGEX-4T-1); label: 5'-FAM on forward strand (hot) or none (cold)
[7] = biological target: His-FOXM1 full-length (UniProt Q08050); assay: competition with a labelled probe; conditions: 100x cold probe vs dsDNA probe-F; EMSA and FP: 20 mM Tris-Cl, 50 mM KCl, 10% glycerol, 0.5 mM EDTA, 0.2 mM DTT, pH 7.6, 30 min on ice; EMSA 50 nM probe, FP 10 nM probe (50 nM in Fig. 1D legend); recombinant protein; protein details: C-terminal His6 (encoded by reverse primer S6); label: 5'-FAM on forward strand (hot) or none (cold)

Sequence	binding result [1]	binding result [2]	binding result [3]	binding result [4]	binding result [5]	binding result [6]	binding result [7]
TCACTTAAAAAAAAAAAACTCATGAAAAAAAAAAAATCCTTT [M-Control Apt-biotin]	no binding						
TCACTTCACACCGCATCTCTACGTCCGGTTGCGCTTTCCTTT [M-FOXM1 Apt-biotin]	binds	no binding	binds	no binding			
TTTGTTTATTTGTTTGTTTATTTG (double strand) [FOXM1 dsDNA probe]					binds	binds	binds

Construct, isoform or probe ends are uncertain for at least one entry. For some assays here: Where cells or extracts were used, other partners may take part. For some assays here: Negatives hold for the conditions tested. For some assays here: At least one verdict was read from the data and is not stated in words by the source.
